Data from publication PMC6868378.
No constants are given. Whether binding was seen depends on the method and setting. Binding seen in cells or lysates may run through a third protein. Some binding calls cover weakened binding; strength is not graded here. For part of these data: Sequences can lack the tags named with a protein.

By UniProt entry, the sequences of proteins in these tests, tags left out. Where a name states a change or a piece, a line headed by the entry shows the natural chain unless it says otherwise. Chains listed by the source or under a name are the forms on record and can include a tag or linker. Residues count along the entry.
NF-κB p50 subunit, endogenous in wild type HEK293T cells (human (endogenous in HEK293T)) (P19838, residues 1-433): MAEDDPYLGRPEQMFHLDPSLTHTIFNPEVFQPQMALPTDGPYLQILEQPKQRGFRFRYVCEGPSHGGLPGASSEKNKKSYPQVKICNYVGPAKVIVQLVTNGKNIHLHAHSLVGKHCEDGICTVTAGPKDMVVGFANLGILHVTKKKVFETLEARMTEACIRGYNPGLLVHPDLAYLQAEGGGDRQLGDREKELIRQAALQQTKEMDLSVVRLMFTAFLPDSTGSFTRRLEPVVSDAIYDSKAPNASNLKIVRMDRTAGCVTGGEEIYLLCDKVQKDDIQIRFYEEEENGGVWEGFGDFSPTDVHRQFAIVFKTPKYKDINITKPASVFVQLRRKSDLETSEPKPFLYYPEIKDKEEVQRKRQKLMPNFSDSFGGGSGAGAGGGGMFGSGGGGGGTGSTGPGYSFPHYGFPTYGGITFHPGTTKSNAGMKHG
NF-κB p50 S80A, from NFKB1^S80A knock-in HEK293T cells (human (endogenous in HEK293T)) (P19838, form named): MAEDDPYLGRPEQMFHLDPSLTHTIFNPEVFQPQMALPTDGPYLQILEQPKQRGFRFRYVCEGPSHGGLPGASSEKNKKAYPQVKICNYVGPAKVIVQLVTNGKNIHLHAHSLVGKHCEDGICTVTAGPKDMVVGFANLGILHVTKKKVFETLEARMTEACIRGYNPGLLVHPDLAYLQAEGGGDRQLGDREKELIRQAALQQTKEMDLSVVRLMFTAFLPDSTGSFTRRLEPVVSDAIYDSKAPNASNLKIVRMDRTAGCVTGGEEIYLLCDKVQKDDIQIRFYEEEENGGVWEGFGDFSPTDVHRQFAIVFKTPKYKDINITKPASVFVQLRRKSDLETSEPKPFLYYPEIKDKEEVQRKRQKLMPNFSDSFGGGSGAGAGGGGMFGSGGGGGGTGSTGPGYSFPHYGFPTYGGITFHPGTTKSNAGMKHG
UniProt P25799, residues 1-431: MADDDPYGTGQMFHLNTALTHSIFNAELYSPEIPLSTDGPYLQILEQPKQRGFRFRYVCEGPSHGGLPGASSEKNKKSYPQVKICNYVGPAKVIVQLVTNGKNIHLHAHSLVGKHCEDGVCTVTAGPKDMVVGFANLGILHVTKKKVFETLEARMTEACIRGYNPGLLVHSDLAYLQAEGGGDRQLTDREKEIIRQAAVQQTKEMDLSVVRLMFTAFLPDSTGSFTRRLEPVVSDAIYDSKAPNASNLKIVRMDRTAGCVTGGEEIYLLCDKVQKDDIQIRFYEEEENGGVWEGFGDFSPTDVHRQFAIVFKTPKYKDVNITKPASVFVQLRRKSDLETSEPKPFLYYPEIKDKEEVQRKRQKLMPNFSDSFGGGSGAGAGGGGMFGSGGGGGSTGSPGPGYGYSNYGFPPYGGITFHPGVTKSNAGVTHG
UniProt Q04206: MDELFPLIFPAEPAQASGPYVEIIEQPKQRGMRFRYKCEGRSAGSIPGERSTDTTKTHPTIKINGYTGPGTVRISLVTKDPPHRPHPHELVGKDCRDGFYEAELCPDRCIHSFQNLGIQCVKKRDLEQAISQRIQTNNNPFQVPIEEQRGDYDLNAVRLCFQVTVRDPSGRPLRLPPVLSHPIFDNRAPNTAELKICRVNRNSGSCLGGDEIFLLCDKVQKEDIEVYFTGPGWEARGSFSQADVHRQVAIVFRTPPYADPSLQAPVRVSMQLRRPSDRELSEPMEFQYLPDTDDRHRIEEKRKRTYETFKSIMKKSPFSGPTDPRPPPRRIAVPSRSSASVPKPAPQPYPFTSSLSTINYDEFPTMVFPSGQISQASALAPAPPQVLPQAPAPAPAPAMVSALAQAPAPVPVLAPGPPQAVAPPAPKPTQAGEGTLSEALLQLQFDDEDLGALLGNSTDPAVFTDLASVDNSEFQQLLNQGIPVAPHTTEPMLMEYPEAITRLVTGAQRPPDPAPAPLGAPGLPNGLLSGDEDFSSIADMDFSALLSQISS

B1: FLAG-IKKβ^K44M (kinase dead IKKβ) (enzyme, UniProt O14920 1-756)
chain: MSWSPSLTTQTCGAWEMKERLGTGGFGNVIRWHNQETGEQIAIMQCRQELSPRNRERWCLEIQIMRRLTHPNVVAARDVPEGMQNLAPNDLPLLAMEYCQGGDLRKYLNQFENCCGLREGAILTLLSDIASALRYLHENRIIHRDLKPENIVLQQGEQRLIHKIIDLGYAKELDQGSLCTSFVGTLQYLAPELLEQQKYTVTVDYWSFGTLAFECITGFRPFLPNWQPVQWHSKVRQKSEVDIVVSEDLNGTVKFSSSLPYPNNLNSVLAERLEKWLQLMLMWHPRQRGTDPTYGPNGCFKALDDILNLKLVHILNMVTGTIHTYPVTEDESLQSLKARIQQDTGIPEEDQELLQEAGLALIPDKPATQCISDGKLNEGHTLDMDLVFLFDNSKITYETQISPRPQPESVSCILQEPKRNLAFFQLRKVWGQVWHSIQTLKEDCNRLQQGQRAAMMNLLRNNSCLSKMKNSMASMSQQLKAKLDFFKTSIQIDLEKYSEQTEFGITSDKLLLAWREMEQAVELCGRENEVKLLVERMMALQTDIVDLQRSPMGRKQGGTLDDLEEQARELYRRLREKPRDQRTEGDSQEMVRLLLQAIQSFEKKVRVIYTQLSKTVVCKQKALELLPKVEEVVSLMNEDEKTVVRLQEKRQKELWNLLKIACSKVRGPVSGSPDSMNASRLSQPGQLMSQPSTASNSLPEPAKKSEELVAEAHNLCTLLENAIQDTVREQDQSFTALDWSWLQTEEEEHSCLEQAS

How the values were obtained:
[1] = molecular target: NF-κB p50 subunit, endogenous in wild type HEK293T cells (human (endogenous in HEK293T)) (UniProt P19838); assay: co-IP; WT or NFKB1^S80A HEK293T, untreated or 10 ng/ml TNFα for 30 min; endogenous p50 immunoprecipitated from whole cell lysates (RIPA buffer) with anti-p105/p50 antibody, western blot with anti-p65
[2] = molecular target: NF-κB p50 S80A, from NFKB1^S80A knock-in HEK293T cells (human (endogenous in HEK293T)) (UniProt P19838); assay: as above
[3] = molecular target: Myc-p50 (NF-κB p50 subunit, murine cDNA in pEF4A) (mouse) (UniProt P25799); assay: co-IP; HEK293T co-transfected with Myc-p50 and FLAG-IKKβ^SSEE or FLAG-IKKβ^K44M; p50 immunoprecipitated from whole cell lysates (RIPA buffer) with anti-Myc antibody overnight at 4°C, protein G-agarose, western blot

| Molecule | binding [1] | binding [2] | binding [3] |
| --- | --- | --- | --- |
| NF-κB p65 (RelA), endogenous in HEK293T cells (from UniProt Q04206 1-551) | binds | binds | – |
| B1 | – | – | no binding |
